# Reference: article PMC4333382, “RNA helicase A activity is inhibited by oncogenic transcription factor EWS-FLI1” (Nucleic Acids Research, 2015)
# System: T1, EWS-FLI1 (in complex with RHA)
# T1 construct: gene EWSR1; assayed with full-length N-terminal His-tagged RHA from Sf9 cells; with ATP-dependent RNA helicase A
# Experiment: dsRNA strand-separation gel assay, reversal of EWS-FLI1 inhibition of RHA
# Type: biochemical, Homo sapiens
# Settings: 1 nM RHA, 1 nM EWS-FLI1, 30 uM compound pre-incubated with EWS-FLI1 10 min; pH 7.5, 2 mM MgCl2, 2 mM nucleotide; binding site unknown
row,SMILES,% helicase activity restored at 30 uM
1,COc1ccc(C(=O)CC2(O)C(=O)Nc3c(Cl)ccc(Cl)c32)cc1 (racemic) [YK-4-279],80%
2,COc1ccc(C(=O)C[C@@]2(O)C(=O)Nc3c(Cl)ccc(Cl)c32)cc1 [(S)-YK-4-279],80%
